The campaign covered roughly 580,000 compounds. About 6,100 (1.1%) were called active. Inconclusive means that the source gave no clear call. Such entries were picked first, then a sample of the others. Calls follow the shape of the dose curve; as a rule, active = well fitted inhibition curve with a large enough effect; inconclusive = small, poorly fitted or top-dose-only effect, or another doubt; inactive = no such curve, though single readings can be large or run the other way. Where the call is inconclusive, the potency comes from a doubtful curve fit.
molecular target: Polyunsaturated fatty acid lipoxygenase ALOX12 (Homo sapiens) (UniProt P18054); assay: Primary qHTS assay for inhibitors of human arachidonate 12S-lipoxygenase (ALOX12): Round 2; conditions: purified 12hLO, xylenol orange hydroperoxide absorbance; activity change, negative = inhibition: at 108 µM (top of the series) unless noted
Outline: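 Purified human 12hLO at 150 nM in 25 mM Hepes, 0.01% Triton X-100, pH 7.0, preincubated 15 min at room temperature with compound. Reaction started with 40 uM arachidonic acid, 30 min at room temperature. Hydroperoxide measured by Fe-xylenol orange, 573/405 nm absorbance ratio.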
% is scaled to controls: 0 for no effect and ±100 for the full control effect; potency is read from the fitted curve at half-maximal effect.

Protein sequences, listed by entry. Tags and fused reporters are not part of them. Lines headed by an entry give the natural chain unless they say otherwise; changes in a name come on top.
UniProt P18054: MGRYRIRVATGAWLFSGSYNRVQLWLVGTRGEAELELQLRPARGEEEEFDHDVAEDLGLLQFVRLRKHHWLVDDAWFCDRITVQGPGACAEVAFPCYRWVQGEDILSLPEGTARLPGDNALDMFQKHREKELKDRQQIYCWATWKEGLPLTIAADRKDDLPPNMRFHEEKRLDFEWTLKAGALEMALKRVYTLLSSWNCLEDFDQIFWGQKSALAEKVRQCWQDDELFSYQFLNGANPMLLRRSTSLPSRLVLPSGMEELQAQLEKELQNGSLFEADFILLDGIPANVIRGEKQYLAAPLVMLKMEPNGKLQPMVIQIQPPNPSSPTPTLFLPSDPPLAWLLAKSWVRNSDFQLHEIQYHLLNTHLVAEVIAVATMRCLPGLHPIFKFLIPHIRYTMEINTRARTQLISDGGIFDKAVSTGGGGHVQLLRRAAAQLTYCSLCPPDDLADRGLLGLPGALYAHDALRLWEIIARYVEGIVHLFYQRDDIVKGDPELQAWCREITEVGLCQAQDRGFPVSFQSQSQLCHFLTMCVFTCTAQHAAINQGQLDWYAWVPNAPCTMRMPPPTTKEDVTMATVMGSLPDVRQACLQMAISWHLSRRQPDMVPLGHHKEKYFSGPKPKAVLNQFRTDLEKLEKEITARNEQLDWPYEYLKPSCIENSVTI

Compound	activity change, negative = inhibition	Potency
CC(C)Cn1c(N)c(C(=O)NCCN2CCOCC2)c2nc3ccccc3nc21	inactive: -1.2%	–
CN(C)CCNc1ccc(CO)c2oc3ccc(O)cc3c(=O)c12	–	inconclusive: 100 µM [inhibitor, single point]
Cc1ccc(OCCNc2ccc(C(F)(F)F)cc2[N+](=O)[O-])cc1	–	inconclusive: 39.8 µM [inhibitor, partial curve, poor fit]
Cc1nc(-c2ccc(F)cc2)n(Cc2nc(-c3ccc(OC(C)C)cc3)oc2C)c(=O)c1CCO	inactive: 43.8%	–
N#Cc1c(N)n(C2CCCCC2)c2nc3ccccc3nc12	–	inconclusive: 70.8 µM [inhibitor, partial curve, poor fit]
COc1cccc(CC(=O)N2CCC3(CC2)NC(=O)N(c2ccc(F)cc2)N3)c1	–	inconclusive: 8.91 µM [inhibitor, full curve, poor fit]
Cc1cc2cc(C(c3nnnn3Cc3ccccc3)N3CCc4ccccc43)c(=O)[nH]c2cc1C (stereo not given)	–	inconclusive: 12.6 µM [inhibitor, full curve, poor fit]
COc1cc2c(c(OC)c1O)C(=O)CO2	–	inconclusive: 17.8 µM [inhibitor, full curve, poor fit]
COc1ccc(NCc2ccc([N+](=O)[O-])s2)cc1	–	inconclusive: 28.2 µM [inhibitor, partial curve]
COC(=O)CN1C(=O)CSc2ccc(S(=O)(=O)Nc3ccc(C)c(Cl)c3)cc21	inconclusive: -30.4% [inhibitor]	–
CCC1=C(C)CN(C(=O)NCCc2ccc(S(=O)(=O)NC(=O)NC3CCC(C)CC3)cc2)C1=O (stereo not given)	–	inconclusive: 0.306 µM [inhibitor, full curve, poor fit]
Cc1ccc2nc(-c3ccc(F)cc3)c(Cc3cccc(F)c3)n2c1	inactive: -55.8%	–
O=C(NC1CCC(C(F)(F)F)CC1)C1CCCO1 (stereo not given)	inactive: 14.7%	–
NCC12CC3CC(C1)CC(c1ccc(Br)cc1)(C3)C2	inactive: -28.6%	–
Cc1ccc(CNc2nc3nc(C)c(CCC(=O)Nc4cccc5ccccc45)c(=O)n3[nH]2)cc1	inactive: -23.4%	–
CC(C)(C)OC(=O)C[C@@H]1C/C=C\C[C@H](CC(=O)N(CCO)Cc2ccccc2)C(=O)N[C@H](C(C)(C)C)COC1=O	inactive: 0.165%	–
Cc1ccc(-c2csc(Cc3nc(-c4cc5ccccc5oc4=O)cs3)n2)cc1	inactive: 6.05% [at 57.4 µM]	–
Cc1ccc(/C=N/n2c(C)n[nH]c2=S)o1	–	inconclusive: 63.1 µM [inhibitor, partial curve, poor fit]
COc1ccc(-c2c(C)nc(N)nc2-c2ccc(OC)cc2O)cc1	–	inconclusive: 25.1 µM [inhibitor, partial curve, poor fit]
c1ccc(OCCCCN2CCOCC2)c(CNC2CCNC2)c1 (stereo not given)	inactive: 31.5%	–
O=C(NC1CCCC1)c1cc2c(Cl)nc3ccccc3c2s1	inactive: -7.26%	–
Cc1ccccc1CNC(=O)c1cc2c(C)nn(C)c2s1	inactive: 45%	–
CCOCC(=O)Nc1nc2ccc(C)cc2s1	–	inconclusive: 8.91 µM [inhibitor, partial curve, poor fit]
Cc1cccn2c(=O)nc(SCC(=O)N3CCN(c4ccccc4)CC3)nc12	–	inconclusive: 79.4 µM [inhibitor, single point]

Single records, from the list above.
O=C(NC1CCCC1)c1cc2c(Cl)nc3ccccc3c2s1 in the list: activity change, negative = inhibition: inactive: -7.26%
CCOCC(=O)Nc1nc2ccc(C)cc2s1 in the list: Potency: inconclusive: 8.91 µM [inhibitor, partial curve, poor fit]
CN(C)CCNc1ccc(CO)c2oc3ccc(O)cc3c(=O)c12 in the list: Potency: inconclusive: 100 µM [inhibitor, single point]
CC(C)(C)OC(=O)C[C@@H]1C/C=C\C[C@H](CC(=O)N(CCO)Cc2ccccc2)C(=O)N[C@H](C(C)(C)C)COC1=O in the list: activity change, negative = inhibition: inactive: 0.165%

The listing continues.

Compound	activity change, negative = inhibition	Potency
CCOc1cc(C(=O)NC(=S)Nn2cnnc2)cc(OCC)c1OCC	–	inconclusive: 2.82 µM [inhibitor, full curve, poor fit]
COc1ccc(OCC(=O)NNC(=S)NC(=O)c2ccc(Br)o2)cc1	–	inconclusive: 50.1 µM [inhibitor, partial curve, poor fit]
CC1(C)CC(=O)c2cc3c(N)c(C#N)sc3nc2C1	–	inconclusive: 10 µM [inhibitor, full curve]
Cc1ccsc1C1CC(=O)Nc2ccccc2S1 (stereo not given)	inactive: 492%	–
CCCc1cc(C(F)(F)F)c(C#N)c(=O)[nH]1	–	inconclusive: 3.98 µM [inhibitor, full curve, poor fit]
C#CCNC(=O)NC(CC)c1ccc(C)cc1 (stereo not given)	–	inconclusive: 112 µM [inhibitor, partial curve, poor fit]
C=CCOc1cccc(NC(=O)C(C)Oc2ccccc2)c1 (stereo not given)	inactive: 5.6%	–
COc1ccc(-c2nnn(Cc3ccccc3F)n2)cc1	inactive: 2.54%	–
CNC(=O)c1cc(COc2nnc(Nc3ccc(Cl)cc3)c3ccoc23)ccn1	–	inconclusive: 2.17 µM [inhibitor, full curve, poor fit]
OCCc1ccc(NCCc2ccco2)cc1	–	inconclusive: 112 µM [inhibitor, single point]
CCOc1ccc(-c2[nH]nc3c2C(c2cn[nH]c2-c2ccc(F)cc2)C(C#N)=C(N)O3)cc1 (stereo not given)	–	inconclusive: 50.1 µM [inhibitor, partial curve, poor fit]
Cc1ccc(CNC2CCCc3c2cnn3Cc2ccccc2)s1 (stereo not given)	–	inconclusive: 10 µM [inhibitor, full curve, poor fit]
CCCC1CCCN(C(=O)Cc2nn(C)c(=O)c3ccccc23)CC1 (stereo not given)	–	inconclusive: 89.1 µM [inhibitor, single point]
CCCCOc1cccc(C2c3c(-c4cc(C)ccc4O)n[nH]c3C(=O)N2CCOC)c1 (stereo not given)	–	inconclusive: 141 µM [inhibitor, single point]
CC(=O)NC1(C)CCN(Cc2ccc(-c3cccc(Cl)c3)cc2)C1 (stereo not given)	–	inconclusive: 39.8 µM [inhibitor, full curve]
Cc1no[n+]([O-])c1COc1ccc(/C=C(\C#N)C(N)=O)cc1	inactive: -10.2%	–
CCOC(=O)n1c(O)c(N=NC(N)=S)c2cc(C)ccc21	inactive: -20.1%	–
Cc1cc(CNC(=O)Cc2nonc2C)c2[nH]c(-c3ccccc3)c(C)c2c1	inactive: 16.1%	–
O=C(OCc1ncc(-c2ccc(Cl)cc2)o1)c1c(F)cccc1F	–	inconclusive: 70.8 µM [inhibitor, single point]
COC(=O)CN1C(C(=O)c2ccccc2)=C(OC(=O)c2ccccc2)c2ccccc2S1(=O)=O	inactive: -18.2%	–
CCCN1C(C(=O)c2ccccc2)=C(OC(=O)COc2ccc(C)cc2)c2ccccc2S1(=O)=O	inconclusive: -31.4% [inhibitor]	–
CC(C)c1noc(C(C)Sc2cc(C(N)=O)c3ccccc3n2)n1 (stereo not given)	–	inconclusive: 15.8 µM [inhibitor, full curve]
CCc1ccc(C(=O)NC(C(=O)NCC2CCCO2)C(C)C)cc1 (stereo not given)	inactive: 0%	–
CCCCNS(=O)(=O)c1ccc2nc(SCC(=O)c3ccc(C#N)cc3)[nH]c2c1	–	inconclusive: 39.8 µM [inhibitor, partial curve, poor fit]

Compound	activity change, negative = inhibition	Potency
COc1ccc(S(=O)(=O)N(CC(=O)Nc2ccc(Br)cc2)Cc2ccccc2)cc1	inconclusive: -30.6% [inhibitor]	–
CCN1CCC2(Cc3ccccc3CN(C(=O)C3CCCC3)C2)C1 (stereo not given)	inactive: 1.34% [at 6.33 µM]	–
O=C(c1ccc(S(=O)(=O)c2ccc(F)cc2)c([N+](=O)[O-])c1)N1CCCCCC1	inactive: -7.59%	–
C[N+]1(CC(O)COCC2COc3ccccc3O2)CCOCC1 (stereo not given)	–	inconclusive: 50.1 µM [inhibitor, partial curve, poor fit]
Cc1cccc(N/C(N)=N/c2nc(C)cc(=O)[nH]2)c1	–	inconclusive: 31.6 µM [inhibitor, partial curve, poor fit]
COc1ccc(C(=O)N2CCC3(CC2)NC(=O)N(c2ccccc2)N3)cc1	–	inconclusive: 12.6 µM [inhibitor, full curve, poor fit]
Nc1ccccc1C(=O)NCC(F)(F)F	inactive: -23.4%	–
COc1ccc2cnn(CC(=O)Nc3ccc(Cl)cc3)c(=O)c2c1OC	–	inconclusive: 50.1 µM [inhibitor, single point]
O=C(Nc1ccccc1)C1CCCN(C(=O)c2ccc(Cl)cc2)C1 (stereo not given)	inactive: -6.28%	–
C[S+](=O)([O-])N1Cc2ccccc2CC2(CCCN2CC2CCCC2)C1 (stereo not given)	inactive: 0.0402% [at 6.33 µM]	–
Cc1cc([N+](=O)[O-])nn1CCCC(=O)Nc1ccc(Cl)cc1Cl	–	inconclusive: 50.1 µM [inhibitor, single point]
O=C1Nc2ccccc2O[C@H]2C[C@@H]1N(Cc1ccnc3ccccc13)C2	inactive: 55% [at 176 µM]	–
CCOC(=O)C1=C(N)Oc2cc(O)ccc2C1c1cccc([N+](=O)[O-])c1 (stereo not given)	–	inconclusive: 50.1 µM [inhibitor, partial curve, poor fit]
CC(O)C(=O)Nc1ccc(C(F)(F)F)cc1 (stereo not given)	inactive: -5.88%	–
COc1cc(C(=O)OC23CC4CC(C2)C(=O)C(C4)C3)cc(OC)c1OC	–	inconclusive: 89.1 µM [inhibitor, partial curve, poor fit]
Cc1ccc(CCNC(=O)c2ccc3c(c2)N(Cc2cccc(F)c2)C(=O)c2ccccc2S3)cc1	–	inconclusive: 56.2 µM [inhibitor, partial curve, poor fit]
O=C(NC1CCN(Cc2ccccc2)CC1)C(F)(F)F	inactive: 48.4%	–
COc1cccc2cc(C(=O)Nc3ccc(C)cc3)c(=O)oc12	–	inconclusive: 44.7 µM [inhibitor, partial curve, poor fit]
CCn1c(SCC(=O)Nc2c(C#N)cnn2-c2ccccc2)nnc1-c1cccs1	–	inconclusive: 39.8 µM [inhibitor, partial curve, poor fit]
O=C(c1ccc(Cl)c(S(=O)(=O)NC2CC2)c1)N1CCN(c2ccccc2O)CC1	–	inconclusive: 126 µM [inhibitor, partial curve, poor fit]
CCCCn1nnc(NC(=O)COc2ccc(Cl)cc2Cl)n1	–	inconclusive: 15.8 µM [inhibitor, full curve, poor fit]
CCOC(=O)c1ccc(NC(=O)C2=C(C)C(=O)OC23CCN(C(C)C)CC3)cc1	–	inconclusive: 141 µM [inhibitor, partial curve, poor fit]
